According to patent publication CN115819578A:
Results are given in words; binding and its absence hold for the method and conditions named. Some entries that bind do so weakly or less than the wild type.

Chains of the proteins cited; added tags and fusions are not shown. Residues count along the entry.
UniProt P05113, residues 20-134: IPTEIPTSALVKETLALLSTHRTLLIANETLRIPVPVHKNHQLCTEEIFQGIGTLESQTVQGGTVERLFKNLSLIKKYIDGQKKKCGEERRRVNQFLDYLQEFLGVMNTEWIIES

Key:
[1] = biological target: 重组人IL-5蛋白 (recombinant Human IL-5, R&D Systems 205-IL-005) (human) (UniProt P05113); assay: BLI (Gator) pairing assay, His-tag recombinant human IL-5 5 μg/mL
[2] = biological target: 重组人IL-5蛋白 (recombinant Human IL-5, R&D Systems 205-IL-005) (human) (UniProt P05113); assay: sandwich ELISA, 16D2 capture, 24A10-biotin detection, human IL-5 100 pg/mL
[3] = biological target: 重组人IL-5蛋白 (recombinant Human IL-5, R&D Systems 205-IL-005) (human) (UniProt P05113); assay: BLI (Gator) pairing assay, after 16D2 had bound IL-5

B1: 兔单克隆抗体16D2 (anti-human IL-5 rabbit monoclonal antibody 16D2) (antibody, V domains shown)
VH: QEQLEESGGDLVKPEGSLTLTCTASGFSFSINYWICWVRQAPGKGLEWIACIYGGSSGSAYYATWAKGRFTISKTSSTTVTLQMTSLTAADTATYFCARDDEGGGIFYNLWGPGTLVTVSS
VL: AYDMTQTPSSASEPVGGTVTIKCQASEDIYNLLAWYQQKPGQPPKLLIYSASTLASGVPSRFKGSGSGTEYTLTISDLECADAATYYCEQHYTPSNVHNTFGGGTEVVVKG
[1]
  binding: binds
[2]
  binding: binds

B2: 兔单克隆抗体24A10 (anti-human IL-5 rabbit monoclonal antibody 24A10) (antibody, V domains shown)
VH: QSLEESGGGLVQPEGSLTLTCTASGFSFSSSYYMCWVRQAPGKGLEWIGCIAAGSSGISYYASWAKGRFTISKTSSTTVTLQMTGLTAADTATYLCSRSCDIYSDGGTSFDLWGPGTLVTVSS
VL: DVVMTQTPASVSEPVGGTVTIKCQASQSISSYLAWYQQKPGQPPKLLIYEASKLASGVPSRFKGSGSGTEFTLTISDLECADAATYYCESNYDITSSYFGGGTEVVVKG
[2]
  binding: binds
[3]
  binding: binds
